# Results published in PubChem BioAssay AID485297 (National Center for Advancing Translational Sciences (NCATS), 2010).
# The campaign covered roughly 320,000 compounds. About 9,100 (2.8%) were called active. These results got no clear call from the source, so the numbers are uncertain. Calls follow the shape of the dose curve; as a rule, active = well fitted activation curve with a large enough effect; inconclusive = small, poorly fitted or top-dose-only effect; inactive = no such curve, though single readings can be large or run the other way.
# Experiment: qHTS Assay for Rab9 Promoter Activators; also: nearly all actives have a fitted effect of over 60% in size
# Conditions: Huh7 Rab9 promoter-luciferase reporter, luminescence, 24 h
# Potency is read from the fitted curve at half-maximal effect.
row,Structure (SMILES),Potency
1,CC(C)c1ccc(NC2CCN(C(=O)OC(C)(C)C)CC2)cc1,inconclusive: 3.16 µM
2,O=C(NCC1(N2CCCCC2)CCCCC1)c1cccc([N+](=O)[O-])c1,inconclusive: 1.12 µM
